Publication PMC4048212
Results are given in words; binding and its absence hold for the method and conditions named. In cells and extracts the contact can be indirect. Some binding calls cover weakened binding; strength is not graded here.

Amino acid sequences for entries named in this document (tags omitted). A change or cut given only in a name is not applied to a line headed by its entry.
UniProt P10242: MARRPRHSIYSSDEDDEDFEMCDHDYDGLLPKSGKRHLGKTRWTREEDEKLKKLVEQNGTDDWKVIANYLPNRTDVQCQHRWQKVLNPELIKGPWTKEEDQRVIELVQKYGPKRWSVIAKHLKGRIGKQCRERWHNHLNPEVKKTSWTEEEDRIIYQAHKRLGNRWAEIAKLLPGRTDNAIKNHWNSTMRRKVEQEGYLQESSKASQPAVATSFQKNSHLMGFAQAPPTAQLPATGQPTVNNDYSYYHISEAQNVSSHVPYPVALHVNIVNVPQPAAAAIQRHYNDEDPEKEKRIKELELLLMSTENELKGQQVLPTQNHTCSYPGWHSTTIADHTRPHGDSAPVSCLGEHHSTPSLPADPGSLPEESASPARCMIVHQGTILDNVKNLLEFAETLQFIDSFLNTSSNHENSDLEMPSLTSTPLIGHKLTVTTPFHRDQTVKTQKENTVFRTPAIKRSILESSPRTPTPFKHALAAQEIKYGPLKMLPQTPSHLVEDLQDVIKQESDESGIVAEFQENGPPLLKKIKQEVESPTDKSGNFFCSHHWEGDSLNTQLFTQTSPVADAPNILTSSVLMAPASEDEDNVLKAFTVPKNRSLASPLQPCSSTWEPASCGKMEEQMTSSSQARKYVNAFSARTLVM
UniProt P32519: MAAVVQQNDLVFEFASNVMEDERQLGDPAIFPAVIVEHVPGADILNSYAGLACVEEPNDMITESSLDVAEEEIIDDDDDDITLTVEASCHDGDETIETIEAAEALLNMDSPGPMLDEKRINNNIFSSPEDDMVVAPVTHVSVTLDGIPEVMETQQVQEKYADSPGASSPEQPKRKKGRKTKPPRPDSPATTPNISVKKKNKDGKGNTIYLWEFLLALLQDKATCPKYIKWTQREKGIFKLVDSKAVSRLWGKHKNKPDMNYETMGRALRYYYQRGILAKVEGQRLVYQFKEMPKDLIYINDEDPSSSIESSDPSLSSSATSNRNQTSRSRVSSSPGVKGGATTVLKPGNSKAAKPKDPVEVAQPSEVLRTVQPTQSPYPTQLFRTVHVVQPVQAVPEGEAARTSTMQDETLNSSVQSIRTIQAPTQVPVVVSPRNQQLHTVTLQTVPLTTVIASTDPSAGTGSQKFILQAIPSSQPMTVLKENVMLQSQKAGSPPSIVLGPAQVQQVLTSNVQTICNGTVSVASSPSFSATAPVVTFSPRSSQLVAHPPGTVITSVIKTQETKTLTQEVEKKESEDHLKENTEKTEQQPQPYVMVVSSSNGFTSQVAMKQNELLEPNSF
UniProt P03372: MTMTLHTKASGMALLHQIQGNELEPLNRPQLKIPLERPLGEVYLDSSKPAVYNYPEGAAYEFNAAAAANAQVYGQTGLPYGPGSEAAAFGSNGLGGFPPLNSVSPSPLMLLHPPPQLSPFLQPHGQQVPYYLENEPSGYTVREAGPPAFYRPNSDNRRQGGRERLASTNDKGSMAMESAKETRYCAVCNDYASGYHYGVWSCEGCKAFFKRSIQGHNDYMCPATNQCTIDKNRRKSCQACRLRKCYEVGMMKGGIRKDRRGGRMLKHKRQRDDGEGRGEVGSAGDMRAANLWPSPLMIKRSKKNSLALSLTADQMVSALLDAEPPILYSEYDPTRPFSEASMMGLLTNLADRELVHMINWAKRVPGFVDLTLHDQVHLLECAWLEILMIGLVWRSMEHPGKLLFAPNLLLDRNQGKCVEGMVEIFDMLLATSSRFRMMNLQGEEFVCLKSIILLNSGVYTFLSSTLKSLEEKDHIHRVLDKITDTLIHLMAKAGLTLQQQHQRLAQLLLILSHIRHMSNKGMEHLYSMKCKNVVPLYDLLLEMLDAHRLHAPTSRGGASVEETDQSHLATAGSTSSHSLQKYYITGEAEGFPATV

What was measured:
[1] = molecular target: c-Myb (human (endogenous in T47D)) (UniProt P10242); assay: co-IP; T47D cells treated with DMSO or E2 (10^-7 mol/L) for 4 h, lysed in RIPA buffer; 1.5 mg lysate, 4 µg anti-c-Myb or anti-ELF-1 overnight at 4°C, protein A/G-agarose, washed 3 times with RIPA; Western blot for ERα; more ERα with E2
[2] = molecular target: ELF-1 (human (endogenous in T47D)) (UniProt P32519); assay: as above
[3] = molecular target: c-Myb (human (endogenous in T47D)) (UniProt P10242); assay: co-IP; T47D cells pretreated with Tamoxifen (10^-6 mol/L) for 30 min before E2 (10^-7 mol/L) for 4 h, lysed; IP with anti-c-Myb or anti-ELF-1, Western blot for ERα
[4] = molecular target: ELF-1 (human (endogenous in T47D)) (UniProt P32519); assay: as above

## estrogen receptor α (from UniProt P03372 1-595)
[1]
  binding: binds
[2]
  binding: binds
[3]
  binding: binds weakly
[4]
  binding: binds weakly
